Test results taken from PubChem BioAssay AID720504 (National Center for Advancing Translational Sciences (NCATS), 2013).
Hit rate of the full screen: of about 360,000 compounds, about 10,000 (2.8%) were called active. The inconclusive results got no clear call from the source; some entries with a clear call stand among them for comparison. Calls come from the whole dose curve; as a rule, active = well fitted inhibition curve with a large enough effect; inconclusive = small, poorly fitted or top-dose-only effect; inactive = flat fitted curve, though single readings scatter. Where the call is inconclusive, the potency comes from a doubtful curve fit.
% is set by controls: 0 for no effect and ±100 for the full control effect; potency is the fitted concentration of half-maximal effect.
Note: nearly all actives have a fitted effect of over 65% in size.
Throughout, for max response, negative = inhibition: series mostly up to about 57 µM.

Chains of the proteins cited; added tags and fusions are not shown.
UniProt P53350, whole entry, looked up: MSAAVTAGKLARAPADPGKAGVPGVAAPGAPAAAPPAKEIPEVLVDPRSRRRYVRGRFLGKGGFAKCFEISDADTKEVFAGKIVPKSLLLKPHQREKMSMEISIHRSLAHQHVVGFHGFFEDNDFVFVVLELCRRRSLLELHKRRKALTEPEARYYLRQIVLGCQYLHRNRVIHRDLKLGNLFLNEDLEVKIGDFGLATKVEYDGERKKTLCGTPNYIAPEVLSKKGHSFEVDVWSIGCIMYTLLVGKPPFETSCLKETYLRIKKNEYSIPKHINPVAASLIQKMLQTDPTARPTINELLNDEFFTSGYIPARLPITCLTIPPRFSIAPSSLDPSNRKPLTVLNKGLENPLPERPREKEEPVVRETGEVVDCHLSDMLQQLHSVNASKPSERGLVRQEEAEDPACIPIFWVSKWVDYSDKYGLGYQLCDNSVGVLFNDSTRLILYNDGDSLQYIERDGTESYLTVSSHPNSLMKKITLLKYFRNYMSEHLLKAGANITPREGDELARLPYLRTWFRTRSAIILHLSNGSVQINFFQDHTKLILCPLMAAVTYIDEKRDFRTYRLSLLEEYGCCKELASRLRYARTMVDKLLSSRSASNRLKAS

Each compound was assayed against Serine/threonine-protein kinase PLK1 (Homo sapiens) (UniProt P53350) (assay: qHTS for Inhibitors of PLK1-PDB (polo-like kinase 1 - polo-box domain): Primary Screen). Conditions: Plk1 PBD binding of FITC phosphopeptide, fluorescence polarization.
With `Cn1nnnc1SC1CC(=O)N(c2ccccc2)C1=O` (configuration not stated) the Potency was inconclusive: 26.7 µM [inhibitor, single point]. In the case of `Cc1ccc(N2C(=O)[C@@H]3[C@H](C2=O)C2c4ccccc4C=CN2[C@@H]3C(=O)c2ccco2)c(C)c1` (some centres not stated), the Potency is reported as active: 26.7 µM. With `CC1CCN(S(=O)(=O)c2ccc([N+](=O)[O-])cc2)CC1` the max response, negative = inhibition was inactive: -13%. With `O=C1NN(c2ccccc2)C(=O)/C1=C/c1ccc(-c2ccc(Cl)c(C(=O)O)c2)o1` the Potency was inconclusive: 16.8 µM [inhibitor, partial curve]. `COc1ccccc1CNC(=O)CS(=O)Cc1nc(-c2ccccc2C)oc1C` (configuration not stated) was tested, and the Potency was inconclusive: 33.6 µM [inhibitor, partial curve]. In the case of `O=C1CC(N2CCCCCC2)C(=O)N1c1ccc(F)cc1` (configuration not stated), the max response, negative = inhibition is reported as inactive: -1.78%. With `O=C(Cn1c(=O)oc2ccccc21)N(Cc1ccccc1)C1CCS(=O)(=O)C1` (configuration not stated) the Potency was active: 21.2 µM. With `Cc1ccc(S(=O)(=O)N2C[C@H]3C(=O)C[C@@H](c4ccc(Cl)cc4)N(S(=O)(=O)c4ccc(C)cc4)[C@H]3C[C@H]2c2ccc(Cl)cc2)cc1` the max response, negative = inhibition was inactive: -0.437%. With `COc1ccc(-c2nc3c(n2O)CCc2c-3no[n+]2[O-])cc1` the Potency was inconclusive: 23.8 µM [inhibitor, partial curve]. In the case of `O=C(COc1ccc2ccccc2c1)Nc1ccc(Br)cc1C(=O)O`, the Potency is reported as inconclusive: 37.7 µM [inhibitor, single point]. For `S=c1[nH]c(-c2ccccc2)cn1/N=C/c1ccncc1`, the Potency was inconclusive: 15 µM [inhibitor, partial curve]. With `CC(C)(C)C1=Nn2c(nnc2-c2ccco2)SC1` the Potency was inconclusive: 26.7 µM [inhibitor, single point]. In the case of `C=CCS/C(=N\n1cnc2ccccc2c1=O)N1CCCCC1`, the Potency is reported as active: 26.7 µM. For `CC(C)c1nc(SCC(=O)Nc2cccc(C(=O)O)c2)c2c3c(sc2n1)CCCC3`, the Potency was active: 42.3 µM. With `COC(=O)c1c(NC(=O)c2cccc(S(=O)(=O)N3CCN(C)CC3)c2)sc(C)c1C` the Potency was inconclusive: 26.7 µM [inhibitor, partial curve]. `C/C(=N\Nc1nc(N2CCCCCC2)nc(N2CCCCCC2)n1)c1ccccc1` was tested, and the max response, negative = inhibition was inactive: -13.1%. `Cc1nnc(C)c2c(C)n(C(C)c3ccccc3)c(C)c12` (configuration not stated) was tested, and the max response, negative = inhibition was inactive: -4.9%. `CCOC(=O)C(=CN=C(N)Nc1nc2ccccc2o1)C(=O)OCC` was tested, and the max response, negative = inhibition was inactive: -12.9%. With `NC(=O)c1c(NC(=O)CCCn2cnc([N+](=O)[O-])n2)sc2c1CCCC2` the Potency was active: 4.74 µM. `C/C(=N\NC(=O)c1cccnc1)c1ccc(OC2OCCOC2Oc2ccc(/C(C)=N/NC(=O)c3cccnc3)cc2)cc1` (configuration not stated) was tested, and the Potency was active: 29.9 µM. In the case of `Cc1ccc(C(=O)N2[C@@H]3CN(C)C(=O)[C@@]2(Cc2ccccc2)[C@H]2C(=O)N(Cc4ccccc4)C(=O)[C@@H]32)cc1`, the max response, negative = inhibition is reported as inactive: -8.23%. For `Cc1ccccc1-c1csc(N)n1`, the Potency was inconclusive: 18.9 µM [inhibitor, partial curve]. With `C(=N\N1CCN(Cc2ccccc2)CC1)/c1ccccc1` the Potency was inconclusive: 5.97 µM [inhibitor, single point]. `COc1ccc(-n2cccc2/C=C2\C(=N)N3N=C(C(C)C)SC3=NC2=O)cc1` was tested, and the Potency was inconclusive: 21.2 µM [inhibitor, single point]. In the case of `COc1ccc(OC)c(CN2CCSCC2)c1`, the max response, negative = inhibition is reported as inactive: 1.65%. In the case of `Cn1c2c(c(=O)n(C)c1=O)C(c1ccc(F)cc1)C(C#N)=C(N)O2` (configuration not stated), the Potency is reported as inconclusive: 18.9 µM [inhibitor, partial curve]. In the case of `CC(NC(=O)CN(C)Cc1cccc(Cl)c1)c1ccccc1` (configuration not stated), the max response, negative = inhibition is reported as inactive: 1.91%. For `COc1cccc2cc(-c3ccccc3)oc12`, the max response, negative = inhibition was inactive: -4.5%. With `CCOc1ccccc1N1CCN(S(=O)(=O)c2cccs2)CC1` the max response, negative = inhibition was inactive: -2.08%. `COc1ccc(CNC(=O)COC(=O)/C=C/c2ccco2)cc1` was tested, and the Potency was inconclusive: 8.44 µM [inhibitor, single point]. In the case of `Cc1ccccc1N=Nc1c(C)[nH]n(C(N)=S)c1=O`, the Potency is reported as inconclusive: 23.8 µM [inhibitor, single point]. With `O=C(Nc1ccc(C(=O)Nc2ccccc2Cl)cc1)c1cccnc1` the max response, negative = inhibition was inactive: 1.98%. `NC(=O)c1c(NC(NC(=O)c2ccco2)(C(F)(F)F)C(F)(F)F)sc2c1CCCC2` was tested, and the Potency was inconclusive: 31.6 µM [inhibitor, partial curve]. `CCOC(=O)C1C2C=CC3(CN(Cc4cccs4)C(=O)C13)O2` (configuration not stated) was tested, and the Potency was active: 16.8 µM. For `COCCN1C(=O)C(O)=C(C(=O)c2cccs2)C1c1ccccc1` (configuration not stated), the max response, negative = inhibition was inactive: -3.38%. `COc1ccc(CCn2c(C)c(C(C)=O)c3cc(OC(=O)c4ccco4)ccc32)cc1OC` was tested, and the Potency was active: 23.8 µM. In the case of `CCOc1ccc2c(c1)C(=O)C(=O)N2CC1COc2ccccc2O1` (configuration not stated), the max response, negative = inhibition is reported as inconclusive: -36.6% [inhibitor]. With `CN(C)c1ccnc(Oc2ccc(Cl)cc2)c1C#N` the Potency was inconclusive: 37.7 µM [inhibitor, single point]. `CCOC(=O)c1sc(NS(=O)(=O)c2cc(C)ccc2C)nc1C` was tested, and the Potency was inconclusive: 21.2 µM [inhibitor, partial curve]. For `O=C(CN1CCc2cc3c(cc2C1)OCCCO3)Nc1cccc([N+](=O)[O-])c1`, the max response, negative = inhibition was inconclusive: -31.2% [inhibitor]. For `CCn1c(CCNC(=O)c2cccs2)n[nH]c1=S`, the max response, negative = inhibition was inactive: -6.7%. In the case of `O=C(CSc1cccc2cccnc12)OCC(=O)c1ccccc1`, the Potency is reported as active: 21.2 µM. For `COc1ccc(C(=O)NC(=S)Nc2ccc(Cc3ccncc3)cc2)cc1`, the Potency was inconclusive: 23.8 µM [inhibitor, partial curve]. `O=C1NN(c2ccc(F)cc2)C(=O)/C1=C/c1cccs1` was tested, and the max response, negative = inhibition was inactive: -27.6%. `O=C(CN1CCCC1)Nc1ccc(F)c(Cl)c1` was tested, and the max response, negative = inhibition was inactive: -14.6%. For `COc1ccc(N=C2NC(=O)S/C2=C\c2ccc(N(C)C)cc2)cc1`, the Potency was inconclusive: 26.7 µM [inhibitor, partial curve]. In the case of `Cc1cc(C(=S)N2CCOCC2)c(C)n1-c1ccc(Cl)cc1`, the Potency is reported as inconclusive: 16.8 µM [inhibitor, partial curve].
